The values below come from paper doi:10.1101/2023.04.19.537590.

By UniProt entry, the sequences of proteins in these tests, tags left out.
UniProt Q9BZL4: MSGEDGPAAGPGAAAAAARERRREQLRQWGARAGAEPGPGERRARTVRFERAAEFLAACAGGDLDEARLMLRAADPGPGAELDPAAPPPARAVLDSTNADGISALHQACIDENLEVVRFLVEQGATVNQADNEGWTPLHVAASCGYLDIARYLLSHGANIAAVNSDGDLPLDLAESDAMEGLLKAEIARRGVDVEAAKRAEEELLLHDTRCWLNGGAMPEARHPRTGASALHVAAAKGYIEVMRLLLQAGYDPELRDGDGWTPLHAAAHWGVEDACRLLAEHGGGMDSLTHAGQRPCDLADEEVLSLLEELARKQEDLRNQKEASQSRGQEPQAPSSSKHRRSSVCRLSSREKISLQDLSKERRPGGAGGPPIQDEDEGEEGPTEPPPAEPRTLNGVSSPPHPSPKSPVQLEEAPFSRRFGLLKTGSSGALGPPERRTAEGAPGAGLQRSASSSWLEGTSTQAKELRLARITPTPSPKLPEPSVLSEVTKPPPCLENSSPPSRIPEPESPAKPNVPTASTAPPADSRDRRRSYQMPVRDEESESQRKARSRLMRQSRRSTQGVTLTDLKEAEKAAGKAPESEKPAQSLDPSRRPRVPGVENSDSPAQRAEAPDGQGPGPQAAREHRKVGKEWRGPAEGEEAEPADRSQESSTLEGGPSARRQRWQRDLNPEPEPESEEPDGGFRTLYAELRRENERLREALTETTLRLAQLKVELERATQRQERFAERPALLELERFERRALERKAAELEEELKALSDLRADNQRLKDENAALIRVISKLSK
UniProt Q9QVP4: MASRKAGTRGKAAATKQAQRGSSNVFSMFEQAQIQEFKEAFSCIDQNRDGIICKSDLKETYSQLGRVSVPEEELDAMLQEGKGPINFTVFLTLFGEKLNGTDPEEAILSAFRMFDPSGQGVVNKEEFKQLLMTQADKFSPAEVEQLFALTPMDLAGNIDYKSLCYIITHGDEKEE

Changes are numbered by the printed parent chain. Results are given in words; binding and its absence hold for the method and conditions named. In cells and extracts the contact can be indirect. Some entries that bind do so weakly or less than the wild type.

In assay [1] the target is protein phosphatase 1 regulatory subunit 12C (human (endogenous in right atrial appendage tissue)) (UniProt Q9BZL4). In words: co-IP.
The target in assay [2] is T1, protein phosphatase 1 regulatory subunit 12C (in HL-1 cells) (mouse (endogenous in HL-1)) (UniProt Q3UMT1).
T1 sequence: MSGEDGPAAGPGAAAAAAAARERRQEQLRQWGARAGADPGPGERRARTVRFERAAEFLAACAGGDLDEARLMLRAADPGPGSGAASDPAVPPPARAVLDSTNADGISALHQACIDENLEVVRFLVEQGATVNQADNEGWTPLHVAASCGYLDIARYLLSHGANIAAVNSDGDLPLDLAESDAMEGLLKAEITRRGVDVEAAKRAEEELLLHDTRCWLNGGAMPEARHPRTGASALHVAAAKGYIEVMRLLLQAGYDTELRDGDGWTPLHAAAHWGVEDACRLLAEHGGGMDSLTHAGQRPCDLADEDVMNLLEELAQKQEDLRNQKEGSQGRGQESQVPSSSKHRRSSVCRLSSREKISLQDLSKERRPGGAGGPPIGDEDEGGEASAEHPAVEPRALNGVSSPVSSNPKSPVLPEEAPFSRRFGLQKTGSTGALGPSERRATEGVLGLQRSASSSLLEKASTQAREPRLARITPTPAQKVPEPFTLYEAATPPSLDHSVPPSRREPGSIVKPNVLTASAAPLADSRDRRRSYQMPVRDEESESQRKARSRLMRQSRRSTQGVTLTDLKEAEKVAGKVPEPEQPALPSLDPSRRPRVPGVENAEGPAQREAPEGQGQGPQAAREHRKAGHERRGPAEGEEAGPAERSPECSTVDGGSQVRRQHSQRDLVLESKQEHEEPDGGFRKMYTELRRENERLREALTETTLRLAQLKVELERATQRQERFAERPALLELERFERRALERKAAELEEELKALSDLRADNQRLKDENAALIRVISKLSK
The assay can be described thus: co-IP.

B1: atrial myosin light chain 2 (protein, UniProt Q01449 1-175)
chain: MASRKAGTRGKVAATKQAQRGSSNVFSMFEQAQIQEFKEAFSCIDQNRDGIICKADLRETYSQLGKVSVPEEELDAMLQEGKGPINFTVFLTLFGEKLNGTDPEEAILSAFRMFDPSGKGVVNKDEFKQLLLTQADKFSPAEVEQMFALTPMDLAGNIDYKSLCYIITHGDEKEE
For the molecule B1, in assay [1], the binding entry is on record as “binds”.

B2: atrial myosin light chain 2 (in HL-1 cells) (protein, UniProt Q9QVP4 1-175)
chain: B1 chain with V12A, A55S, R58K, K66R, K119Q, D125E, L132M, M146L
Consider B2, for which the binding entry in assay [2] is reported as “binds”.
